Changes are numbered by the printed parent chain. These are yes or no findings as the source states them, for the method shown. Binding seen in cells or lysates may run through a third protein. Some binding calls cover weakened binding; strength is not graded here. Tags and fused reporters may be left off the sequences shown. Values belong to the molecule of their own block, whether it stands above or below them.
Tests used:
[1] = biological target: T1, myc–MICAL1 G3W (human) (UniProt Q8TDZ2); test: co-IP; transfected 293T, IP with α-myc antibody and Protein G Sepharose; 20 mM Hepes pH 7.4, 150 mM NaCl, 2 mM EDTA, 1% IGEPAL CA-630; Western blot
T1 sequence: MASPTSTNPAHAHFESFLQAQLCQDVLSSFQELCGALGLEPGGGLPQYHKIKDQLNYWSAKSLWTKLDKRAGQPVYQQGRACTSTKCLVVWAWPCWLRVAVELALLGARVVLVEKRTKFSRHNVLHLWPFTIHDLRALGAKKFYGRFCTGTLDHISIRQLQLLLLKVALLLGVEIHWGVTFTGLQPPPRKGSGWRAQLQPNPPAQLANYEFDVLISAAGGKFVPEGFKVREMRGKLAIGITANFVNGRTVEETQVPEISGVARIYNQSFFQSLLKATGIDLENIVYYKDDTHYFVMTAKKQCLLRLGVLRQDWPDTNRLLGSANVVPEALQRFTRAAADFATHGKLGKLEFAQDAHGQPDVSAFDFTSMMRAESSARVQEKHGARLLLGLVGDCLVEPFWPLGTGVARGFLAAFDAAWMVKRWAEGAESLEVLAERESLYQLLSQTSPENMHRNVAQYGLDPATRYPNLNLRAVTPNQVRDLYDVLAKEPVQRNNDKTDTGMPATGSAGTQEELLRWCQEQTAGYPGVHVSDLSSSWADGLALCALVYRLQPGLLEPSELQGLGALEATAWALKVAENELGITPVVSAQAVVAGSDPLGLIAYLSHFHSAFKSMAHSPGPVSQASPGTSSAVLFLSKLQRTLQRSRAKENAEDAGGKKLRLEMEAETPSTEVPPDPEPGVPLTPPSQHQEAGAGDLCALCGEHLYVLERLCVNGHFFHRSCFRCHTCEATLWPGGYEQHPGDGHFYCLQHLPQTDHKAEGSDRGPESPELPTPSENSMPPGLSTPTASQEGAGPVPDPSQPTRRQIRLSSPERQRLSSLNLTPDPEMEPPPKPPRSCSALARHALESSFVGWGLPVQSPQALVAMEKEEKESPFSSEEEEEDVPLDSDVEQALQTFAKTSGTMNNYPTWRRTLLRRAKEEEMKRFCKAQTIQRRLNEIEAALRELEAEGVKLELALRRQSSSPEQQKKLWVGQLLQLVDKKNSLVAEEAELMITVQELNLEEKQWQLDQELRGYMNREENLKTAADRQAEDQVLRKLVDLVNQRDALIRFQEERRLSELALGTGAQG

By UniProt entry, the sequences of proteins in these tests, tags left out.
UniProt P62491: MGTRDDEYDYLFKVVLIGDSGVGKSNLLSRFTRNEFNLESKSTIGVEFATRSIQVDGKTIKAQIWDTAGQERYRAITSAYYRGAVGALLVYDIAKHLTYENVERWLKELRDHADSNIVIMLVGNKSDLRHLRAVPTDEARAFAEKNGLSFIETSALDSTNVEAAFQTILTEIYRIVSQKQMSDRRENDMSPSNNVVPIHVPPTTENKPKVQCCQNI
UniProt Q92930: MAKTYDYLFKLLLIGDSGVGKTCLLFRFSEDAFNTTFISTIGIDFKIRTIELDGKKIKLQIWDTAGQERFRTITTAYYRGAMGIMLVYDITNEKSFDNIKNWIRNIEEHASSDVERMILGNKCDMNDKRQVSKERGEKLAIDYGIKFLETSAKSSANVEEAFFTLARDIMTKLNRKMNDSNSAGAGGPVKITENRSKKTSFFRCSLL
UniProt P61026: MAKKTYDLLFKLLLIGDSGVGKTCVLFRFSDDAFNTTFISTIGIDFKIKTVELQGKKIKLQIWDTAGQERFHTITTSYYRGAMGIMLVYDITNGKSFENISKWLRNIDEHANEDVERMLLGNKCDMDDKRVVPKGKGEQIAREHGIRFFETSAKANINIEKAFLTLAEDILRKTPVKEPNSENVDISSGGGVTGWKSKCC
UniProt P61007: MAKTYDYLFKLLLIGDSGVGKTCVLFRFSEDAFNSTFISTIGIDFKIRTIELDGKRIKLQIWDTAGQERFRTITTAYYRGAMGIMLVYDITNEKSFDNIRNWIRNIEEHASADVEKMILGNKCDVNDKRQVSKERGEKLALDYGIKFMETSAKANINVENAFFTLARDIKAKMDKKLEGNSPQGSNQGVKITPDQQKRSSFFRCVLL

[2] = biological target: T2, myc-MICAL1 (human) (UniProt Q8TDZ2); test: as above
T2 sequence: T1 sequence with W91G, W93G, W96G

[3] = biological target: GFP-Rab11a (human) (UniProt P62491); test: co-IP; transfected 293T, IP with α-GFP and Protein G Sepharose; 20 mM Hepes pH 7.4, 150 mM NaCl, 2 mM EDTA, 1% IGEPAL CA-630; Western blot
[4] = biological target: GFP-Rab8b (human) (UniProt Q92930); test: as above
[5] = biological target: GFP-Rab10 (human) (UniProt P61026); test: as above
[6] = biological target: GFP-Rab8a (canine) (UniProt P61007); test: as above

binding [1]: binds
binding [2]: binds
Molecule: GFP-Rab10 (from UniProt P61026 1-200)

binding [3]: no binding
binding [4]: binds
binding [5]: binds
binding [6]: binds
B1: untagged MICAL1 (protein, UniProt Q8TDZ2 1-1067)
chain: T1 sequence with W91G, W93G, W96G
